Test results reported in publication PMC2912835 (Journal of Experimental & Clinical Cancer Research : CR, 2010).

How the values were obtained:
Experiment in all cases: cells
Settings in all cases: Mus musculus, BaF3, 24 h, read-out: IC50 of Stably Transfected Ba/F3 Cell Survival
[1] = test system: Ba/F3 cells stably transfected with KIT AYins503-504
Experimental: (§1) The ability of Kit mutants to act as survival factors was assessed in Kit-dependent Ba/F3 cells. Ba/F3 cells stably transfected with various KIT mutants were seeded in a 96-well tissue culture plate at a density of 5 × 10^3 cells per well. […] Cell viability was assessed by measuring the level of adenosine triphosphate using ATPlite assays (PerkinElmer Life Sciences, Boston, MA). Reconstituted ATPLite 1-step solution was added to each well followed by incubation with shaking for 2 minutes. The plate was read on a Victor Model 1420 multilabel counter (PerkinElmer Inc.) under the luminescence setting.

[2] = test system: Ba/F3 cells stably transfected with KIT V560D/T670I
Experimental: as §1

[3] = test system: Ba/F3 cells stably transfected with KIT V560D/V654A
Experimental: as §1

[4] = test system: Ba/F3 cells stably transfected with KIT V560D
Experimental: as §1

[5] = test system: Ba/F3 cells stably transfected with KIT Y823D
Experimental: as §1

[6] = test system: Ba/F3 cells stably transfected with KIT Δ552-559
Experimental: as §1

Compound: Cc1ccc(NC(=O)c2ccc(CN3CCN(C)CC3)cc2)cc1Nc1nccc(-c2cccnc2)n1 [Imatinib, reference compound]
- IC50 [1]: 0.047 µM
- IC50 [2]: > 3 µM
- IC50 [3]: 0.145 µM
- IC50 [4]: 0.007 µM
- IC50 [5]: 0.33 µM
- IC50 [6]: 0.001 µM
